PubChem BioAssay AID1224827 | NIAID, 2016
This is an unselected part of about 3,800 reagents. About 2,200 of all reagents (57%) count as active. 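Active means a strong reporter change in either direction; calls are per siRNA, not per gene; qiagen siRNAs gave weaker effects.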 Reagents against one gene are numbered here. Not all columns of the deposit are shown.

- Screen: 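Confirm genes whose knock-down changes LPS-driven TNF promoter activity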 (follow-up of hits)
- Cell system: RAW264.7 G9 mouse macrophage reporter clone
- Reagents: single siRNA against mouse genes, 100 nM siRNA
- Duration: siRNA for 2 days, then LPS about 16 h
- Conditions: bacterial lipopolysaccharide (LPS), 10 ng/ml, cells fixed after overnight (about 16 h) stimulation
- Measured: 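Imaged nuclear TNF reporter intensity, background removed, scaled per plate and to non-targeting control wells, as z-scores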
- Direction: TNF reporter z-score, mean and TNF reporter z-score: higher = stronger Tnf promoter reporter signal; gene median z, three same-vendor siRNAs: higher = stronger Tnf reporter signal for the gene
- Call rule: 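An siRNA is called active when its mean z-score over replicates is at least +2 or at most -2; control wells get no call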

| target | siRNA no. | TNF reporter z-score, mean | gene median z, three same-vendor siRNAs | TNF reporter z-score, repeat 1 | outcome |
| --- | --- | --- | --- | --- | --- |
| Snrnp35 (GeneID 76167) | 1 | 3.61 | -3.43 | 2.3 | active |
| Snrnp35 (GeneID 76167) | 2 | -3.9 | -3.43 | -2.08 | active |
| Snrnp35 (GeneID 76167) | 3 | -4.83 | -3.43 | -4.79 | active |
| Snrnp35 (GeneID 76167) | 4 | 3.29 | 1.15 | 5.6 | active |
| Snrnp35 (GeneID 76167) | 5 | 1.9 | 1.15 | 4.53 | inactive |
| Snrnp35 (GeneID 76167) | 6 | -0.275 | 1.15 | 1.32 | inactive |
| Dtx3 (GeneID 80904) | 1 | 4.46 | -3.94 | 4.38 | active |
| Dtx3 (GeneID 80904) | 2 | -3.99 | -3.94 | -3.77 | active |
| Dtx3 (GeneID 80904) | 3 | -4.18 | -3.94 | -4.1 | active |
| Dtx3 (GeneID 80904) | 4 | -0.469 | -2.26 | -0.213 | inactive |
| Dtx3 (GeneID 80904) | 5 | -2.8 | -2.26 | -3.87 | active |
| Dtx3 (GeneID 80904) | 6 | -3.29 | -2.26 | -3.78 | active |
| Atg12 (GeneID 67526) | 1 | -1.9 | -2.5 | -2.27 | inactive |
| Atg12 (GeneID 67526) | 2 | -2.5 | -2.5 | -2.61 | active |
| Atg12 (GeneID 67526) | 3 | -3.23 | -2.5 | -3.61 | active |
| Atg12 (GeneID 67526) | 4 | 2.81 | 0.621 | 4.28 | active |
| Atg12 (GeneID 67526) | 5 | 0.621 | 0.621 | 1.14 | inactive |
| Atg12 (GeneID 67526) | 6 | -2.15 | 0.621 | -1.74 | active |
| Card6 (GeneID 239319) | 1 | 1.83 | -1.5 | 3.36 | inactive |
| Card6 (GeneID 239319) | 2 | -2.03 | -1.5 | -2.71 | active |
| Card6 (GeneID 239319) | 3 | -2.18 | -1.5 | -1.66 | active |
| Mrtfb (GeneID 239719) | 1 | 0.523 | -4.11 | -0.22 | inactive |
| Mrtfb (GeneID 239719) | 2 | -4.4 | -4.11 | -4.13 | active |
| Mrtfb (GeneID 239719) | 3 | -4.56 | -4.11 | -5.03 | active |
| Mrtfb (GeneID 239719) | 4 | 2.03 | -0.0678 | 3.66 | active |
| Mrtfb (GeneID 239719) | 5 | 0.454 | -0.0678 | 1.45 | inactive |
| Mrtfb (GeneID 239719) | 6 | -2.41 | -0.0678 | -3.09 | active |

Not a retest: 4 of the entries above.
| target | siRNA no. | TNF reporter z-score, mean | gene median z, three same-vendor siRNAs | TNF reporter z-score, repeat 1 | outcome |
| --- | --- | --- | --- | --- | --- |
| Snrnp35 (GeneID 76167) | 6 | -0.275 | 1.15 | 1.32 | inactive |
| Dtx3 (GeneID 80904) | 1 | 4.46 | -3.94 | 4.38 | active |
| Dtx3 (GeneID 80904) | 2 | -3.99 | -3.94 | -3.77 | active |
| Dtx3 (GeneID 80904) | 3 | -4.18 | -3.94 | -4.1 | active |
